Taken from: PubChem BioAssay AID743454 (Peter MacCallum Cancer Centre, 2014)

Test: 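Genes whose loss kills vorinostat-resistant colon cancer cells under vorinostat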 (primary screen)
Cell system: human HCT116-VR colon cancer cells, selected for vorinostat resistance
Knock-down reagent: siRNA pool against human genes, 40 nM siRNA pool
Timing: vorinostat for 24 h, read-out about 72 h after transfection
Treatment: vorinostat at 2.5 µM final
Read-out: 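Two measures, CellTiter-Fluor viability and luminescent caspase 3/7 activity, each as fold change against same-plate mock wells, mean of duplicates, then screen-wide robust z-score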
Scale: viability robust z-score: higher = more viable cells than screen typical; caspase robust z-score: higher = more caspase 3/7 activity than screen typical
Call rule: 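Hits are knock-downs in viability class RV1/RV2 or caspase class CA1/CA2, excluding ones that killed cells in the no-drug cell-count arm; hits then retested with single siRNAs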
This is a random part of about 18,000 reagents tested. 450 of all reagents (2.5%) were called active. 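Single biological run; no consistent viability z cut-off exists, so the class columns, not z-scores, define the calls.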

{"target gene": "SPATA1 (spermatogenesis associated 1)", "viability hit class": "no change", "caspase hit class": "no change", "viability robust z-score": 0.6, "caspase robust z-score": 0.83, "activity call": "inactive"}
{"target gene": "ENPP3 (ectonucleotide pyrophosphatase/phosphodiesterase 3)", "viability hit class": "no change", "caspase hit class": "no change", "viability robust z-score": -0.14, "caspase robust z-score": -0.18, "activity call": "inactive"}
{"target gene": "LDOC1 (LDOC1 regulator of NFKB signaling)", "viability hit class": "no change", "caspase hit class": "no change", "viability robust z-score": 0.04, "caspase robust z-score": 1.68, "activity call": "inactive"}
{"target gene": "CT47A7 (cancer/testis antigen family 47 member A7)", "viability hit class": "no change", "caspase hit class": "no change", "viability robust z-score": 0.26, "caspase robust z-score": 1.14, "activity call": "inactive"}
{"target gene": "TMC7 (transmembrane channel like 7)", "viability hit class": "no change", "caspase hit class": "no change", "viability robust z-score": -0.06, "caspase robust z-score": 1.36, "activity call": "inactive"}
{"target gene": "LRRN2 (leucine rich repeat neuronal 2)", "viability hit class": "no change", "caspase hit class": "no change", "viability robust z-score": -0.16, "caspase robust z-score": 1.94, "activity call": "inactive"}
{"target gene": "ASGR1 (asialoglycoprotein receptor 1)", "viability hit class": "no change", "caspase hit class": "no change", "viability robust z-score": -1.74, "caspase robust z-score": 0.71, "activity call": "inactive"}
{"target gene": "TCIM (transcriptional and immune response regulator)", "viability hit class": "no change", "caspase hit class": "no change", "viability robust z-score": 0.67, "caspase robust z-score": -0.57, "activity call": "inactive"}
{"target gene": "SEC23A (SEC23 homolog A, COPII component)", "viability hit class": "no change", "caspase hit class": "no change", "viability robust z-score": 0.08, "caspase robust z-score": 0.24, "activity call": "inactive"}
{"target gene": "TMEM252 (transmembrane protein 252)", "viability hit class": "no change", "caspase hit class": "no change", "viability robust z-score": 0.24, "caspase robust z-score": -0.02, "activity call": "inactive"}
{"target gene": "SLC22A13", "viability hit class": "no change", "caspase hit class": "no change", "viability robust z-score": -0.2, "caspase robust z-score": 0.22, "activity call": "inactive"}
{"target gene": "NOL3 (nucleolar protein 3)", "viability hit class": "no change", "caspase hit class": "no change", "viability robust z-score": 0.82, "caspase robust z-score": 1.68, "activity call": "inactive"}
{"target gene": "FOXD4L1 (forkhead box D4 like 1)", "viability hit class": "no change", "caspase hit class": "no change", "viability robust z-score": 0.44, "caspase robust z-score": 2.11, "activity call": "inactive"}
{"target gene": "NET1 (neuroepithelial cell transforming 1)", "viability hit class": "no change", "caspase hit class": "no change", "viability robust z-score": 0.35, "caspase robust z-score": -0.52, "activity call": "inactive"}
{"target gene": "SRRT (serrate, RNA effector molecule)", "viability hit class": "no change", "caspase hit class": "no change", "viability robust z-score": -0.36, "caspase robust z-score": -0.99, "activity call": "inactive"}
{"target gene": "XRCC2 (X-ray repair cross complementing 2)", "viability hit class": "no change", "caspase hit class": "no change", "viability robust z-score": 0.14, "caspase robust z-score": 0.28, "activity call": "inactive"}
{"target gene": "SCAI (suppressor of cancer cell invasion)", "viability hit class": "no change", "caspase hit class": "no change", "viability robust z-score": 0.03, "caspase robust z-score": -0.72, "activity call": "inactive"}
{"target gene": "STON1 (stonin 1)", "viability hit class": "no change", "caspase hit class": "no change", "viability robust z-score": -0.65, "caspase robust z-score": 0.14, "activity call": "inactive"}
{"target gene": "EIF3H (eukaryotic translation initiation factor 3 subunit H)", "viability hit class": "no change", "caspase hit class": "no change", "viability robust z-score": -0.5, "caspase robust z-score": -0.57, "activity call": "inactive"}
{"target gene": "AMMECR1L (AMMECR1 like)", "viability hit class": "no change", "caspase hit class": "no change", "viability robust z-score": 0.28, "caspase robust z-score": 1.01, "activity call": "inactive"}
{"target gene": "LCMT2 (leucine carboxyl methyltransferase 2)", "viability hit class": "no change", "caspase hit class": "no change", "viability robust z-score": 0.8, "caspase robust z-score": 2.04, "activity call": "inactive"}

Laid out differently: 3 of the entries above.
ENPP3 (ectonucleotide pyrophosphatase/phosphodiesterase 3) — viability hit class = no change; caspase hit class = no change; viability robust z-score = -0.14; caspase robust z-score = -0.18; activity call = inactive
LDOC1 (LDOC1 regulator of NFKB signaling) — viability hit class = no change; caspase hit class = no change; viability robust z-score = 0.04; caspase robust z-score = 1.68; activity call = inactive
CT47A7 (cancer/testis antigen family 47 member A7) — viability hit class = no change; caspase hit class = no change; viability robust z-score = 0.26; caspase robust z-score = 1.14; activity call = inactive
